# Some of the results follow.
# What was measured:
# Experiment in all cases: glycan array binding signal (z-score within array); higher = stronger binding
# Details in all cases: glycan notation: IUPAC condensed, linker removed
# [1] = molecular target: Fuc(a1-3)[Gal(b1-4)]GlcNAc
# Procedure, shortened: (§1)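 From the Consortium for Functional Glycomics database, 3228 arrays were curated, keeping only those whose protein sequence was available. Binding is given as a within-array Z-score averaged across arrays sharing a protein sequence and across linkers. Negative Z-scores can be read as non-binding.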
# [2] = molecular target: Fuc(a1-3)[Gal(b1-4)]GlcNAc(b1-3)Gal(b1-3)[Fuc(a1-4)]GlcNAc
# Procedure, shortened: as §1
# [3] = molecular target: Fuc(a1-3)[Gal(b1-4)]GlcNAc(b1-3)Gal(b1-4)[Fuc(a1-3)]GlcNAc
# Procedure, shortened: as §1
# [4] = molecular target: Fuc(a1-3)[Gal(b1-4)]GlcNAc(b1-3)Gal(b1-4)[Fuc(a1-3)]GlcNAc(b1-3)Gal(b1-4)[Fuc(a1-3)]GlcNAc
# Procedure, shortened: as §1
# [5] = molecular target: Fuc(a1-3)[Gal(b1-4)]GlcNAc(b1-4)Gal(b1-4)[Fuc(a1-3)]GlcNAc
# Procedure, shortened: as §1
# [6] = molecular target: Fuc(a1-3)[Gal(b1-4)]GlcNAc(b1-4)Gal(b1-4)[Fuc(a1-3)]GlcNAc(b1-4)Gal(b1-4)[Fuc(a1-3)]GlcNAc
# Procedure, shortened: as §1
# [7] = molecular target: Fuc(a1-3)[Gal(b1-4)]GlcNAc6S
# Procedure, shortened: as §1
# [8] = molecular target: Fuc(a1-3)[Gal3S(b1-4)]Glc
# Procedure, shortened: as §1
# [9] = molecular target: Fuc(a1-3)[Gal3S(b1-4)]Glc6S
# Procedure, shortened: as §1
# [10] = molecular target: Fuc(a1-3)[Gal3S(b1-4)]GlcNAc
# Procedure, shortened: as §1
# [11] = molecular target: Fuc(a1-3)[Gal3S(b1-4)]GlcNAc6S
# Procedure, shortened: as §1
# [12] = molecular target: Fuc(a1-3)[GalNAc(b1-4)]Gal(b1-4)GlcNAc
# Procedure, shortened: as §1
# [13] = molecular target: Fuc(a1-4)GlcNAc
# Procedure, shortened: as §1
# [14] = molecular target: Fuc(b1-3)GlcNAc
# Procedure, shortened: as §1
# [15] = molecular target: Gal(a1-2)Gal
# Procedure, shortened: as §1
# [16] = molecular target: Gal(a1-3)Gal
# Procedure, shortened: as §1
# [17] = molecular target: Gal(a1-3)Gal(b1-3)Glc
# Procedure, shortened: as §1
# [18] = molecular target: Gal(a1-3)Gal(b1-3)GlcNAc
# Procedure, shortened: as §1
# [19] = molecular target: Gal(a1-3)Gal(b1-4)Glc
# Procedure, shortened: as §1
# [20] = molecular target: Gal(a1-3)Gal(b1-4)GlcNAc
# Procedure, shortened: as §1
# [21] = molecular target: Gal(a1-3)Gal(b1-4)[Fuc(a1-3)]GalNAc
# Procedure, shortened: as §1
# [22] = molecular target: Gal(a1-3)Gal(b1-4)[Fuc(a1-3)]GlcNAc
# Procedure, shortened: as §1
# [23] = molecular target: Gal(a1-3)GalNAc
# Procedure, shortened: as §1
# [24] = molecular target: Gal(a1-3)GlcNAc
# Procedure, shortened: as §1
# [25] = molecular target: Gal(a1-3)[Gal(a1-4)]Gal(b1-4)GlcNAc
# Procedure, shortened: as §1
# [26] = molecular target: Gal(a1-4)Gal(b1-4)Gal
# Procedure, shortened: as §1
# [27] = molecular target: Gal(a1-4)Gal(b1-4)GalNAc
# Procedure, shortened: as §1
# [28] = molecular target: Gal(a1-4)Gal(b1-4)Glc
# Procedure, shortened: as §1
# [29] = molecular target: Gal(a1-4)Gal(b1-4)GlcNAc
# Procedure, shortened: as §1
# [30] = molecular target: Gal(a1-4)GlcNAc
# Procedure, shortened: as §1
# [31] = molecular target: Gal(a1-6)Glc
# Procedure, shortened: as §1
# [32] = molecular target: Gal(b1-2)Gal
# Procedure, shortened: as §1
# [33] = molecular target: Gal(b1-3)Gal
# Procedure, shortened: as §1
# [34] = molecular target: Gal(b1-3)GalNAc
# Procedure, shortened: as §1
# [35] = molecular target: Gal(b1-3)GalNAc(b1-3)Gal(a1-4)Gal(b1-4)Glc
# Procedure, shortened: as §1
# [36] = molecular target: Gal(b1-3)GalNAc(b1-3)Gal(b1-4)Glc
# Procedure, shortened: as §1
# [37] = molecular target: Gal(b1-3)GalNAc(b1-3)Gal(b1-4)GlcNAc
# Procedure, shortened: as §1
# [38] = molecular target: Gal(b1-3)GalNAc(b1-4)Gal(b1-4)Glc
# Procedure, shortened: as §1
binder,measurement,setting,value
"TIM-1 (Mus musculus), AAL35774 (protein) MNQIQVFISGLILLLPGAVDSYVEVKGVVGHPVTLPCTYSTYRGITTTCWGRGQCPSSACQNTLIWTNGHRVTYQKSSRYNLKGHISEGDVSLTIENSVESDSGLYCCRVEIPGWFNDQKVTFSLQVKPEIPTRPPTRPTTTRPTATGRPTTISTRSTHVPTSIRVSTSTPPTSTHTWTHKPEPTTFCPHETTAEVTGIPSHTPTDWNGTVTSSGDTWSNHTEAIPPGKPQKNPTKGFYVGICIAALLLLLLVSTVAITRYILMKRKSASLSVVAFRVSKIEALQNAAVVHSRAEDNIYIVEDRP",glycan array binding signal (z-score),[1],-0.275
same,glycan array binding signal (z-score),[2],0.109
same,glycan array binding signal (z-score),[3],-0.089
same,glycan array binding signal (z-score),[4],-0.43
same,glycan array binding signal (z-score),[5],0.339
same,glycan array binding signal (z-score),[6],-0.967
same,glycan array binding signal (z-score),[7],-0.818
same,glycan array binding signal (z-score),[8],-0.853
same,glycan array binding signal (z-score),[9],0.935
same,glycan array binding signal (z-score),[10],-0.291
same,glycan array binding signal (z-score),[11],0.826
same,glycan array binding signal (z-score),[12],-0.76
same,glycan array binding signal (z-score),[13],0.748
same,glycan array binding signal (z-score),[14],-0.011
same,glycan array binding signal (z-score),[15],0.18
same,glycan array binding signal (z-score),[16],0.169
same,glycan array binding signal (z-score),[17],-0.335
same,glycan array binding signal (z-score),[18],-0.558
same,glycan array binding signal (z-score),[19],0.13
same,glycan array binding signal (z-score),[20],-0.231
same,glycan array binding signal (z-score),[21],0.158
same,glycan array binding signal (z-score),[22],2.6
same,glycan array binding signal (z-score),[23],0.027
same,glycan array binding signal (z-score),[24],0.622
same,glycan array binding signal (z-score),[25],0.882
same,glycan array binding signal (z-score),[26],1.46
same,glycan array binding signal (z-score),[27],-0.032
same,glycan array binding signal (z-score),[28],-0.121
same,glycan array binding signal (z-score),[29],0.112
same,glycan array binding signal (z-score),[30],0.653
same,glycan array binding signal (z-score),[31],1.2
same,glycan array binding signal (z-score),[32],0.505
same,glycan array binding signal (z-score),[33],0.214
same,glycan array binding signal (z-score),[34],0.223
same,glycan array binding signal (z-score),[35],-0.481
same,glycan array binding signal (z-score),[36],-0.806
same,glycan array binding signal (z-score),[37],-0.062
same,glycan array binding signal (z-score),[38],0.095

# Source: the supplement of paper PMC8728848
